The target of this test is T1, SEMA4A expressed on transfected H9 cells (human) (UniProt Q9H3S1).
T1 sequence: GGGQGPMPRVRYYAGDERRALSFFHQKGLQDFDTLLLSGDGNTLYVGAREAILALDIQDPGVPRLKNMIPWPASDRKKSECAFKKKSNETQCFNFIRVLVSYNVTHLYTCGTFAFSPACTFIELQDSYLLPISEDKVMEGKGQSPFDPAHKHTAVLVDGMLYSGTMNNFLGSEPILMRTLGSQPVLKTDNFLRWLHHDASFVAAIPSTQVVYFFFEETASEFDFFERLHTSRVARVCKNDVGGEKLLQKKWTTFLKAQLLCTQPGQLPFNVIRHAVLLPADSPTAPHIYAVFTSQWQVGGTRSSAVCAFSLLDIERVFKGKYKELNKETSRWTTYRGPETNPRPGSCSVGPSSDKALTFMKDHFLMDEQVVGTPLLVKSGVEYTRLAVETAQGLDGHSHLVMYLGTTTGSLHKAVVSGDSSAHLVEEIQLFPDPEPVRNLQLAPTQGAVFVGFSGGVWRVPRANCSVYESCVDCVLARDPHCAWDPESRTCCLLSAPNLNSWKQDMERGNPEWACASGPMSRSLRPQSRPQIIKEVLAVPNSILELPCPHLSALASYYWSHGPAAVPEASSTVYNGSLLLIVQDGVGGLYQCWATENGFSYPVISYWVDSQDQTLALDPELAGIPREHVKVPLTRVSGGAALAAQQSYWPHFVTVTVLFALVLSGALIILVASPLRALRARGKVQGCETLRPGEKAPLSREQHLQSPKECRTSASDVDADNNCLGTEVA
The test can be described thus: flow cytometry on cells; SEMA4A-transfected H9 cells stained with ILT-4-Fc, with or without an excess of anti-SEMA4A mAb or mIgG; hIgG as control; only the binder purified. In general terms: A flow cytometer gives signals particle by particle.

The chains behind the UniProt entries cited, without tags or fusion partners. Residues count along the entry.
UniProt Q8N423, residues 22-460: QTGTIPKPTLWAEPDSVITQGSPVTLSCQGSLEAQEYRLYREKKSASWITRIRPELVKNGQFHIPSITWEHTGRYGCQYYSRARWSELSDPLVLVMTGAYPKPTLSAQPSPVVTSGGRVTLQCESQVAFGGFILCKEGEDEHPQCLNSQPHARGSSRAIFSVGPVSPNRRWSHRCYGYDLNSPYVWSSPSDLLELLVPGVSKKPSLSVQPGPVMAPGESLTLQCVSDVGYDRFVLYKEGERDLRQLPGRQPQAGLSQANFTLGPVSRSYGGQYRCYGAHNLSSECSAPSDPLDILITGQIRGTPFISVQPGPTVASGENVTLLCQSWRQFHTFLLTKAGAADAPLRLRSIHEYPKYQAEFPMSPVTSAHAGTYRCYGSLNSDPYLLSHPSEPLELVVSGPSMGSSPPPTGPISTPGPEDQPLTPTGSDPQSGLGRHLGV

No constants are given. Whether binding was seen depends on the method and setting. Some entries that bind do so weakly or less than the wild type.

Consider “recombinant ILT-4-Fc fusion protein (R&D Systems) (from UniProt Q8N423 22-460)”, for which the binding entry is listed as “binds”.
